Measurements taken from publication PMC11651612.
No constants are given. Whether binding was seen depends on the method and setting. Binding seen in cells or lysates may run through a third protein. Here binding means that the protein was enriched with, or labelled near, the bait; the list need not be complete. Blank lines part the entries; values can stand above or below the binder they belong to.

Target: T1, Cdc3-mCherry (C. neoformans) (UniProt J9VUF2)
T1 sequence: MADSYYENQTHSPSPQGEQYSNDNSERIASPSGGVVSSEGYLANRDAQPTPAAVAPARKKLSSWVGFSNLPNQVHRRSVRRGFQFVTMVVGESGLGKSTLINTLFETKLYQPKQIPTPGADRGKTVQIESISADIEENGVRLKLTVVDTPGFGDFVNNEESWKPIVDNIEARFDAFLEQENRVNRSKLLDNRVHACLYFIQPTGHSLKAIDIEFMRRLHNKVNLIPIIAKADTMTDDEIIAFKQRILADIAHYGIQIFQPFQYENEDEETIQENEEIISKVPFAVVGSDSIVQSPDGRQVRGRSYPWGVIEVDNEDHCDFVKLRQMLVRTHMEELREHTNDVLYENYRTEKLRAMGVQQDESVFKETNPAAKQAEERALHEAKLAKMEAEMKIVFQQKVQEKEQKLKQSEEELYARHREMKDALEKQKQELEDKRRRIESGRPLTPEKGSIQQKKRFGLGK
Assay: affinity purification with mass spectrometry; mCherry-tagged septin captured from C. neoformans lysate on RFP-Trap agarose, 4 h at 4°C, washed with TBS with 2 M urea pH 7.5; GeLC-MS/MS; untagged H99 as negative control; hits logFC >2 and adjusted p <0.001 (text-named hits <0.05); exponential cultures at ~25°C or shifted to 37°C for 2 h; N = 5

binding: binds
B5: RRM Nup35-type domain-containing protein (protein, UniProt J9VJ19 1-324)
chain: MSNDWWSQTPSRYTSTPIHPTLSRSQSVSQSTRTRFAGDELDPEDSRAADAVKFLPSFASSQAGRVALGTSPTGGMSMSVGSPQGERRSPQGRLSGSVHESNSPRHITRARSLAQNAALSSSTANGPAPMDEDMPPTASLRDSVTETRVATVVASNELPTPPSLLPTKSTTTLYIFGPPPNILSTLQPYLTQFGPIASYRPGPEGSNWYIVEYTTPMGAAYALRRHGEVLGGQWMIGFKVGIGGAMEGIGSAPGEGDAQGSSSQVPPPTAGTPIRVQHKEILRPKVVQPVVAKAAVKSGNDYAWDEPEGSGGWTGWVSERLFGR

binding: binds
B8: Coronin (protein, UniProt J9VJD9 1-695)
chain: MSRFVRPSKYRHVYGSKSKVNYENVKISGSAWDTDLVAAGGKYLSVNWQASGGGAFAILPLFSPTSPPQPAGFPTKLPDIVPLARGHTAPVLDTAWNPFDDNIVASAGEDGKIFIWKVEDSAFEGWGEDQWEPEDFNPALKLSAGGRKVGQVIFHPTSSNLLTAASGDHLVRLWDISSSADEPKLVLKGHGDSIQSIAWNSVGTTLATTCRDKKLRLFDPRAGSDAVRITDGHAGVKGSRVVWLGDRDRIATTGFSRMSDRQVSLWDTSSLKNLDTQSIDSSAGVLMPFYAEGNDVLFLAGKGDGNIRYYEFEGDQLHFLNEYKTSDPQRGMTLLPRRALDTQEHEIARAYKLSGGCVEPLSFIVPRKSESFQSDIFPPANSVEPAQTAADWFTGKNVRPNVVDLETGGVSASKEAVPTLTSSAPAAAPAQASAPSSTPSPAPAPVKEEPKSAPVYTPSPPAAPTQAPAPAAADVPIAVKKEIDSVPEITAKGLEIEQPEEASEDEQEEDKGPVEKVQDSLKSLTVGKEEPEKESNGVVAPSNTLLIKKLSPSATLPTRGSSLSAGYDLYSAEETVVPARGKALIDSGLCIAVPEGTYGRVAPRSGLASKHSIDTGAGVIDADYRGPVKVLLFNYSDSDFTIQKGDRIAQLILEKIVMAPIVEVEDLDATARGSGGFGSTGGFGKAVKDVAGSLI

binding: binds
B9: DBR1 domain-containing protein (protein, UniProt J9VGM4 1-183)
chain: MSSNSPKRERLDVESPQDREARLGQLLQSISSNPNQSQESTPIKSLNPLPSRPHVVPESDVLSRVRAFLPQFQASNDALFAQARENPDSVDIEKGQSGQYISMDLGLGVFDAPENPKGDMGPIIATQPPESLTCQQEDGDEDADSDSDGDGDSTGSSSSESESEDETNGKVELNTENTQESKS

binding: binds
B10: E2 ubiquitin-conjugating enzyme (protein, UniProt J9VQ05 1-220)
chain: MSDARLRRVQKEIKDCAKDKTSGIAIEMIDDNPFHLVGAFPGPPDTPYEGGYYEVDIQIPETYPFQPVKMKFITKVYHPNVSSASGAICLDILKDAWSPVLTLKSTLISLQSLLCEPIPSDPQDAQVAKHYLTDRNSFNDTAKHWAQAYAQAPAHKQQNARGEVATDAELAGLAEEHVVSFTDMGFSRDKVISVLRRRNYRGNNVNPATYNSCLEELLQG

binding: binds
B11: Hepatocellular carcinoma-associated antigen 59-domain-containing protein (protein, UniProt J9VGU4 1-304)
chain: MFKKRSRPTSVRDKSRIEEAEGSGNEEKVASGSGTPIVEEEEDDDTGRTVEELLMLKKLKKAQSRQGIDLEKLNRGEEKKRKGKKKEDAAEKYGLQPGRGMGRGDGEKEKDEEMEDEAERAKRLVRVNNFTQQTNALDVDKHMMAYIEAELAKRRGQAAATTDESALEDNDPQAELYRIAEKYQFETRKKKADDEGNVTNSLGMLTSIPEVDLGMDNRLKNIEMTEKAKRDMLEQRKQEAAAAAAAAKEAEDPGYAAARFYRPNQKSASDIYANYEKRQTTGAPRQESATDEQVYERFKKRMKR

The next lines start with the binder.

B1: Maintenance of telomere capping protein 1 (protein, UniProt J9VNZ4 1-475)
chain: MPPKGKKTKAEEALDFLSNLDNLDAPDTSSPPPTADATRDSTDSTRKSLSASRELPNKAAAKPTAEDEEAESALAFLNAQINQKRAKPLSDSRSGTPLSAAGSSAATGSASTSAPKPKTPATEPTNMPTGTPAPAQSSGGWGSFWSTATSALQSAQRVADEQYQKVKSEGVNGVTGQLESLRVNVKSVPGVDLSKLRKGAEERLGGFVRGVDLDKLRKDLVNTTSSTLTTILDTVAPPISEHETLELWLSHPMIGYAGVEGVIYRAWARILEQTESGELIIVWSPSPTPGDSSGEPRGINPVEGWDAAWELGKKEIAAIKAREEEKPRGRAEAKRNMPVTTVPIFLHLQPLLVRLPYAEPPIHSSTSIQDKPFTPPNHLYFLFTLDDPTHSLTFTTVSQPTPSDWMDVEYENSEWVEERLVEVLRTGVEVIAQDYVATRMGLKPSAPQAAAVAALVEQANQEGENKAATDEKKSD
binding: binds

B2: DUF953 domain-containing protein (protein, UniProt J9VLD8 1-119)
chain: MPLQTAPYPHVFNALNGPTAPAVSYIVFYSNIVDGQMWCPDCRAVENVVKETFDTPDKPNAAIFWVGNRQEWRTPNNQARTEWNVNSVPTILRLENGKETGRLVEDEILDKARLQAFIK
binding: binds

B3: Proteasome inhibitor PI31 subunit (protein, UniProt J9VDS2 1-419)
chain: MSDPLNAASLLGLLPTLLPQETTSPLPLSTDAIAALVHTIHTALQFRLVSPAPQTADDSSKLEQLGSGGDNDDAMSEVTAVEQEDNSQPPVGRLAEGWNSRGEDSYSFQYRHDQSAMNFRVRVGKMGNRAQIDAMAEDGEPHNLSIVISELVDSELFPIPSSATASSASNQGFPDASATAVGFKSINDVKAFVERYSRDIISRLLPGLSISGYNQASGSDPRAPPPAGAPQRSEPSPARPSVPRTGDPLLDNIININPSGRNPASLGHRDLDPLASLRPPGSFNPTRDGGGMLMDFNHPIFDSRRGRGLGDPDLDGPGGSVQPPGSRWDPVGPSPDGVSGGVMFPGVGGSPLGGVGRGDRDRWGDEMPPPGEFGPDLGRFGGGSGIGGPLGGGRGGGRFGGGGGGGLGGGGGFGGNMYM
binding: binds

B4: Transcription initiation factor TFIIF subunit beta (protein, UniProt J9VJG5 1-340)
chain: MSSPSGPSTTSPFSFLQEEEEHLEVSDRKDASSVWALKVPNFLLQRWQTVQEPGVELGRLVVDNSVTPPNITLKLTNAEEGTEEAERAKRAKYDVEGLPDEFKVEVPMERSKNTFLFSEVKKVYDKGSRDGRQQADAPRDAWGKRKREKAHPKLLARVDHEGHIQPIRTQKYLDFLKARRMEAEQSRRPVVRMEDTGLSQAEQNQLASGFRSANSTFGSNMILASKQASGERFARLERHELTDRIFQCFRDHPYWALGALKQTLEQPDAWLREVLRDVAEQVKEGQYQGYWQLKPVWREDAWKGGENGESVKNGVKEEGDVKPDIDEDDDEDEDDLEEVM
binding: binds

B6: V-type H-transporting ATPase subunit E (protein, UniProt J9VH39 1-227)
chain: MSRSGALDDNEIQSEMNKMVAFISQEAREKAREIQVKADEEFAIEKAKIVRQESLAIDAQFEKKRKQAEVSWKISQSTAINNSRLRILQSRNDHLETLFDEANKRVMELSAGDRYKDALVNLILEVLLKLLSADITLSHRPKDTELVEKSAQEAQKRYKDIAGRESNISFDPSLSDDSPGGVIGTSMGGRIKVDNTLEERLRILEEKMLPELRHDLFGPNENRKFYT
binding: binds

B7: Sec1-like protein (protein, UniProt J9VP42 1-766)
chain: MAHLASLSISPAMTRPSLLHAQTHALLTLLNLNNPPPAAPATAAGPFPRPSSPGTPFDDGAQRPLVWKVLILDDASQDVLATTLRVQDLREQGVTLHMQLHSARPPLADVPAVYFVSPTLANIRRIAEDLSPPLYASYYLAFTSSLPRSLLEELASLILSNDPSGQTGQLIASVTDQFLDFVVPSPNMFSLLPRRELKQDPDGTAGKGKKGKDAKEEWVEGRASYVVLNDPRATEVDIEEEVGRIAKGLFSVVTTMNMTPIIRCPRGNAAEMVARRLDAKLRDHIASTSSRNARDAYSVDALQRPLLAIMDRNIDLIPMLSHSWTYQALVSDVLDMKLNRVTVSSPENGRLTKKSYDIDSKDFFWAKNAGNPFPAVAEDIDTDLSKYKTDAAEITRSTGISDVNDVSQIDFTSNTANLKTAITALPELTARKQILDTHMNIATALLQSIKERGLDNLFQIEETAGKQTKATILSVLNGATDEPGQTASPSPLDQLRLVIIYFLSTQDGALSKEDLKELESVLKEHGADTRALEYVKKVRDIHRMSTLAVQPAVAAQSQSGGGGEWTRGFSALGNRITDRLREGGIPTVGLDNLISGVKSFLPARKDLTLTRLVEALMDPASASSQALQDTDDYLFFDPKTSRARPGHAGAGGAGGAGAGGAGGGGAGGGAGGPGGGRSQFSEGVVFVVGGGGYVEYGNLMDWANRSGGGGGRDGGGGGGGGAGGVGAGGAGAQGVTGQGGRKVTYGSTEILNPEKFLKSLEELGSV
binding: binds

B12: Signal recognition particle subunit SRP72 (protein, UniProt J9VGD8 1-313)
chain: MAPPAKPTSTPKRKPFSPKPPRPAEERLPKLYRALTDQVDDGYFENAIKTCKKILALDASSQTAFQTLLFLHLQTDDYTSALSLLDHPSNEQSLDFERAYCLYRLHREKEALEVLKGLSEKGRKTDHLEAQILYRLGEYSQAQEIYEGMLADCDVSSPEHADIVTNLSATTAHLDFDTHGYHSHLSTTISSTSQTPMNTADLETIVPSLPTGWSSGGLAATVEKKTATVKAPEEKNERSRPRHKLPKGVVAGKEFTEDPERWIPFRQRLSYITAQSKKKGAKESMGTGFTQGSTGGHSAGSGGGGKSKKGKRK
binding: binds

B13: DLH domain-containing protein (protein, UniProt J9VSC3 1-322)
chain: MQARARLTSTLPLRSRLVSTSYERSGRNLSTFTTSSRTSSLVKFFIVNYNNTRSFTNITGKMSKNTECCPPQSNSNPSKPNVPHPTSDPIGYKYKGEFKSVANYDKVYVTGPESAKHALVVIYDIFGFWDTTIKGSDTLVSHLASTFPTKVLMPDVFKGKPFPADKDGDKETLQKFFATTAKLDERLPEVLDFAKELQKSYEKVSILGYCWGGKLTLLSLVEGTPFNAGAVAHPAMIAPEDGEKLSVPLGFYPSHDEPKDVIEKIVNDFKSKPFGDKCGYHLYDTVHHGWAAARANLNDPENVKQFEDVYKRLSEWFASVKA
binding: binds

B14: DNA-directed RNA polymerase II subunit RPB4 (protein, UniProt J9VQ08 1-147)
chain: MAALPAHHRRQQIQEEDATKLQFGDFAEGEALTLTEVATLLKAARQAPNVPPAPDNKVYQSTTDYVNEFSNTTMDVSDSMRTALSARHGFLNKFEIAQIMSLRPERVEVAVALIPSLERYAQGDENEAQLQSLLDDVRAMVRYGVQP
binding: binds
